# PubChem BioAssay AID504444 (National Center for Advancing Translational Sciences (NCATS), 2011)
# Among all 360,000 compounds or so, about 7,500 (2.1%) were called active. Inconclusive means that the source gave no clear call. Such entries were picked first, then a sample of the others. Calls come from the whole dose curve; as a rule, active = well fitted inhibition curve with a large enough effect; inconclusive = small, poorly fitted or top-dose-only effect, or effect the other way; inactive = flat fitted curve, though single readings scatter. Potencies of inconclusive entries are doubtful fits and often do not repeat.
# Assay: Nrf2 qHTS screen for inhibitors; note: nearly all actives have a fitted effect of over 60% in size
# Details: A549 ARE-Fluc reporter, luciferase luminescence, 18-24 h; activity change, negative = inhibition: at 46 µM (top of the series)
# How it was run: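 Reporter: ARE-Fluc in A549. Exposure: 18-24 h, 37 °C, 5% CO2, 5% FBS OPTI-MEM. Readouts: fluorescent cytotoxicity (CellTiter-Fluor), then luminescent Nrf2 signal after BugLite.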
# % is set by controls: 0 for no effect and ±100 for the full control effect; potency is the fitted concentration of half-maximal effect.
SMILES,Potency,"activity change, negative = inhibition"
COc1cc(OC)cc(C(=O)Nn2cc(C(=O)Nc3ccc(F)cc3F)c3ccccc3c2=O)c1,"inconclusive: 20.6 µM [falling, partial curve, poor fit]",
CCOc1ccc(-c2cc(NC(=O)Nc3ccc(Cl)cc3)c(C(=O)OC)s2)cc1,"inconclusive: 11.6 µM [activator, single point]",
Cc1c(OC(C(=O)O)c2ccccc2)ccc2c(-c3ccccc3)cc(=O)oc12 (stereo not drawn),,inactive: 3.34%
COc1ccccc1CCC(=O)Nc1cccc(S(=O)(=O)N2CCCCCC2)c1,"inconclusive: 20.6 µM [falling, single point]",
O=C(C1CCN(S(=O)(=O)c2cccs2)CC1)N1CCCCCC1,,inactive: 19.6%
S=C(N/N=C/c1ccco1)NC1CC2CCC1C2 (stereo not drawn),"inconclusive: 9.2 µM [activator, partial curve, poor fit]",
CCN(C(=O)c1cc2c(=O)n3cccc(C)c3nc2s1)C1CCCCC1,"inconclusive: 9.2 µM [activator, partial curve]",
CCOc1ccccc1C(=O)Nc1ccccc1O,"inconclusive: 29.1 µM [activator, single point]",
CCC(C)Sc1nc2c(c(=O)[nH]c(=O)n2C)n1CC(O)COc1ccccc1C (stereo not drawn),,inactive: -24.3%
c1ccc(CC2CCCNC2)cc1 (stereo not drawn),"inconclusive: 25.9 µM [activator, partial curve, poor fit]",
O=S(=O)(NCCc1cn2ccccc2n1)c1ccc2c(c1)CCCC2,"inconclusive: 6.51 µM [falling, partial curve, poor fit]",
COc1ccc(C(=O)Nc2cc3c4c(c2)CC(=O)N4CCC3)c(OC)c1,"inconclusive: 0.731 µM [activator, full curve, poor fit]",
COC(=O)c1sc(-c2ccccc2)cc1NC(=O)Nc1ccc(Cl)cc1,"inconclusive: 23.1 µM [falling, partial curve, poor fit]",
CC1=C(C(=O)NCc2ccccc2C)C2(CCCCCC2)OC1=O,"inconclusive: 29.1 µM [activator, single point]",
Fc1ccc(Nc2ccc(-c3ccc(F)cc3)nn2)cc1,"inconclusive: 0.103 µM [activator, full curve, poor fit]",
CCCCN(Cc1cc2ccccc2[nH]c1=O)C(=O)c1cccc(Cl)c1,,inactive: -11.6%
O=C(NCc1cccnc1)c1cc(Sc2cccc(Cl)c2)nc2ccccc12,,inactive: -23.9%
O=S(=O)(c1ccc2c(c1)OCCO2)N1CCN(S(=O)(=O)c2cccs2)CC1,,inactive: -14.2%
Cn1c(=O)c2c(nc(CN3CCN(c4ccccc4)CC3)n2Cc2c(F)cccc2Cl)n(C)c1=O,,inactive: 10.8%
CSc1ccccc1OCc1cc(C(=O)N(C)Cc2ccc3nsnc3c2)no1,"inconclusive: 1.3 µM [activator, full curve]",
CC1(C)N=C(SCC(=O)Nc2ccc(Cl)cc2)C(c2ccc(Cl)cc2)=N1,active: 25.9 µM,
CC(=O)N(Cc1cccnc1)c1cccc(-c2nc3ccccc3s2)c1,"inconclusive: 29.1 µM [falling, single point]",
COc1ccc(Nc2nnc(SCC(=O)N3CC(=O)Nc4ccccc43)s2)cc1,"inconclusive: 1.3 µM [activator, full curve]",

SMILES,Potency,"activity change, negative = inhibition"
C[n+]1c(-c2ccccc2)cc2c(=Cc3ccc([N+](=O)[O-])cc3)c3ccccc3n21,"inconclusive: 16.4 µM [falling, single point]",
OCOCCCn1c(C2CCCN2c2nc(-c3ccc(F)cc3)cs2)nc2cc(Cl)c(N3CCCCC3)cc21 (stereo not drawn),"inconclusive: 29.1 µM [falling, single point]",
CN(C)S(=O)(=O)c1cccc(NC(=O)/C=C/c2ccc(S(=O)(=O)N3CCOCC3)cc2)c1,active: 23.1 µM,
CN(C)c1ccc(-c2nc(-c3cccs3)c(-c3cccs3)[nH]2)cc1,"inconclusive: 18.4 µM [falling, single point]",
CN1CCN(CCCN2c3ccccc3Sc3ccc(S(=O)(=O)N(C)C)cc32)CC1,,inactive: 0.989%
CCNC(=S)Nc1scc(-c2ccccc2)c1C(=O)OCC,"inconclusive: 29.1 µM [falling, partial curve, poor fit]",
Cc1ccc(C(=O)N2CCN(c3ccccc3)CC2)cc1S(=O)(=O)N1CCOCC1,"inconclusive: 16.4 µM [falling, single point]",
CCOc1ccc(C(=O)NCCc2ccccc2)cc1,"inconclusive: 29.1 µM [falling, single point]",
CCOc1ccccc1N1C(=O)CN(Cc2ccc(OC)c(OC)c2)C1=S,"inconclusive: 32.6 µM [falling, single point]",
c1ccc(Cc2nnc3sc(Nc4ccccc4)nn23)cc1,"inconclusive: 10.3 µM [falling, partial curve]",
O=C(NCc1ccccc1Cl)c1ccc(CS(=O)(=O)c2ccccc2)o1,,inactive: 11.1%
Cc1ccc(C(=O)NC(=S)NNS(=O)(=O)c2ccccc2)cc1,,inactive: 20.3%
Cc1ccccc1C(=O)NC(C(N)=O)P(=O)(OC(C)C)OC(C)C (stereo not drawn),,inactive: -23%
COc1ccc(F)cc1CN1CCN(c2ncnc3scc(-c4ccccc4)c23)CC1,"inconclusive: 20.6 µM [falling, single point]",
O=C(Nc1cccc(Cl)c1Cl)c1ccc(-c2ccccc2)cc1,"inconclusive: 6.51 µM [activator, single point]",
CN(CC(=O)NC1CCN(Cc2ccccc2)CC1)S(=O)(=O)c1ccc(Br)s1,"inconclusive: 32.6 µM [falling, single point]",
Cc1cc(OCCn2c(CCNC(=O)C3CCCCC3)nc3ccccc32)ccc1Cl,"inconclusive: 29.1 µM [falling, single point]",
CCN(CC)S(=O)(=O)c1ccc(NC(=O)c2ccccc2N(C)S(C)(=O)=O)cc1,,inactive: -21.1%
CC1(C(=O)O)CCC(C(=O)NC2CCCCCC2)C1(C)C (stereo not drawn),"inconclusive: 2.31 µM [activator, partial curve]",
CCn1c(=O)cc(C(=O)OC)sc1=Nc1ccc(F)c(F)c1,"inconclusive: 32.6 µM [falling, single point]",
O=C(O)Cc1sc(Nc2ccc(F)cc2)nc1-c1cccs1,"inconclusive: 18.4 µM [activator, single point]",
COc1ccc(C(=O)c2ccc3oc(-c4ccc(OC)cc4)c(-c4ccc(O)cc4)c3c2)cc1,"inconclusive: 18.4 µM [falling, single point]",
CCc1ccc(OCC(=O)O/N=C(\N)c2ccncc2)c(Br)c1,"inconclusive: 16.4 µM [activator, partial curve]",

SMILES,Potency,"activity change, negative = inhibition"
O=C(NCc1ccccn1)c1cccc(S(=O)(=O)Nc2ccc(SC(F)F)cc2)c1,,inactive: -28%
CC(C)CCN1CCC(Cc2ccccc2)(NC(=O)c2ccccc2)C1=O (stereo not drawn),,inactive: 11.3%
Cc1cc2c3c([nH]c2cc1S(=O)(=O)NCc1ccc(CN2CCCCCC2)o1)CC(C)(C)CC3=O,"inconclusive: 25.9 µM [activator, single point]",
CCCCCNc1nc(N2CCCC2)c2c(c1C#N)CCN(C)C2,,inactive: 6.35%
Cc1ccc(N(C)S(=O)(=O)c2cccc(C(=O)Nc3ccc(N4CCOCC4)cc3)c2)cc1,"inconclusive: 16.4 µM [falling, single point]",
O=C(Nc1cccc(C(F)(F)F)c1)N1CCC(c2nc(-c3ccc(F)cc3)no2)CC1,"inconclusive: 32.6 µM [falling, partial curve, poor fit]",
COC(=O)C1=C(CCc2ccccc2)NC(=O)NC1c1ccc(C#N)cc1 (stereo not drawn),,inactive: -7.19%
COc1cc(O)ccc1/C=N/NC(=O)c1ccc([N+](=O)[O-])cc1,,inactive: 1.81%
CCS(=O)(=O)c1c([N+](=O)[O-])ncn1C,"inconclusive: 23.1 µM [falling, partial curve, poor fit]",
COC(=O)c1sccc1NC(=O)c1ccc(C(C)C)cc1,"inconclusive: 9.2 µM [activator, partial curve]",
S=C(NCCCc1cnc[nH]1)NCCCN(CCc1ccc(Cl)cc1)c1ccc(Br)cn1,,inactive: 14.6%
O=C(NC1CCCCC1)c1cc(C2CC2)on1,"inconclusive: 4.61 µM [activator, full curve]",
CCOC(=O)Cn1c(=O)cc(C(F)(F)C(F)(F)F)c2c(C)nn(CC)c21,"inconclusive: 3.66 µM [activator, full curve, poor fit]",
COc1ccc(N=CC2=C(O)CCCC2=O)cc1,"inconclusive: 7.31 µM [activator, partial curve, poor fit]",
O=C(Cc1ccccc1)NC1CCN(Cc2ccccc2)CC1,,inactive: -6.62%
COc1ccc(COC(=O)C2=C(C)NC(=O)NC2c2ccccc2)cc1 (stereo not drawn),"inconclusive: 23.1 µM [falling, partial curve, poor fit]",
Cc1cc(/C=N\NC(=O)CC(=O)NC2CCCCC2)c(C)n1-c1ccc(Cl)cc1,"inconclusive: 16.4 µM [falling, single point]",
O=C(N=Nc1c(O)[nH]c2ccccc12)c1cc(-c2ccc(F)cc2)n[nH]1,"inconclusive: 29.1 µM [activator, single point]",
COc1ccccc1N1CCN(C(=O)Cc2cccs2)CC1,"inconclusive: 0.92 µM [falling, partial curve, poor fit]",
O=C(Nc1ccc([N+](=O)[O-])c(NC(=O)c2cccnc2)c1)c1cccnc1,"inconclusive: 29.1 µM [falling, single point]",
Cc1cc(-c2nc3ccccc3s2)ccc1N,"inconclusive: 2.06 µM [activator, partial curve, poor fit]",
COc1ccc(NC(=O)c2sc3nc4c(cc3c2N)CCCCCC4)cc1,"inconclusive: 29.1 µM [falling, single point]",

# Entries of single compounds, quoted from the list.
# `O=C(N=Nc1c(O)[nH]c2ccccc12)c1cc(-c2ccc(F)cc2)n[nH]1` in the list: Potency: inconclusive: 29.1 µM [activator, single point]
# `Cc1ccc(N(C)S(=O)(=O)c2cccc(C(=O)Nc3ccc(N4CCOCC4)cc3)c2)cc1` in the list: Potency: inconclusive: 16.4 µM [falling, single point]
# `COc1ccccc1N1CCN(C(=O)Cc2cccs2)CC1` in the list: Potency: inconclusive: 0.92 µM [falling, partial curve, poor fit]
# `CCS(=O)(=O)c1c([N+](=O)[O-])ncn1C` in the list: Potency: inconclusive: 23.1 µM [falling, partial curve, poor fit]
